Reference: publication PMC4901042
Results are given in words; binding and its absence hold for the method and conditions named. Some binding calls cover weakened binding; strength is not graded here.

The chains behind the UniProt entries cited, without tags or fusion partners.
UniProt O64645: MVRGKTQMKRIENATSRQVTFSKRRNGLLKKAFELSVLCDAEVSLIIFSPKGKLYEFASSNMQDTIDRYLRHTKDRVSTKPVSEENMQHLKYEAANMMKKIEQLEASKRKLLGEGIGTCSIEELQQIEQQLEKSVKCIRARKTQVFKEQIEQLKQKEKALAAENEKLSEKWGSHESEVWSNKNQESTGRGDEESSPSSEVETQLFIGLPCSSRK

T1: AGAMOUS-LIKE 24 (AGL24) of Arabidopsis (Arabidopsis), O82794
T1 chain: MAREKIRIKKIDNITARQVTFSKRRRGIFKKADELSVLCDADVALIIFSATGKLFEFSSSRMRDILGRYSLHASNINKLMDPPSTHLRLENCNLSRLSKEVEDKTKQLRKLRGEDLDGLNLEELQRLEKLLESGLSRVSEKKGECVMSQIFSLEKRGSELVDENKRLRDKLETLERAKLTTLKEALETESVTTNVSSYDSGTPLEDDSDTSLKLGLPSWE


Tests used:
Test in all cases: two-hybrid; Matchmaker Two-Hybrid System (Clontech); pGBKT7 (BD) and pGADT7 (AD) fusions cotransformed in yeast; SD/-Trp/-Leu/-His/-Ade/X-α-gal (40 μg/ml) with 5 mM 3-AT; grade by the number of clones
[1] = biological target: T1, AGAMOUS-LIKE 24 (AGL24) of Arabidopsis …; details: remark: other sources report otherwise
[2] = biological target: SUPPRESSOR OF OVEREXPRESSION OF CONSTANS 1 (SOC1) of Arabidopsis (Arabidopsis) (UniProt O64645)
[3] = biological target: …3 (SEP3) of Arabidopsis (Arabidopsis) (UniProt O22456)

Row | Binder | binding [1] | binding [2] | binding [3]
1 | AGAMOUS-LIKE 24 (AGL24) of Arabidopsis, O82794 1-220 (protein) MAREKIRIKKIDNITARQVTFSKRRRGIFKKADELSVLCDADVALIIFSATGKLFEFSSSRMRDILGRYSLHASNINKLMDPPSTHLRLENCNLSRLSKEVEDKTKQLRKLRGEDLDGLNLEELQRLEKLLESGLSRVSEKKGECVMSQIFSLEKRGSELVDENKRLRDKLETLERAKLTTLKEALETESVTTNVSSYDSGTPLEDDSDTSLKLGLPSWE | binds | – | –
2 | AGAMOUS-LIKE 24 (AGL24) of Arabidopsis (protein, UniProt O82794 1-220) MAREKIRIKKIDNITARQVTFSKRRRGIFKKADELSVLCDADVALIIFSATGKLFEFSSSRMRDILGRYSLHASNINKLMDPPSTHLRLENCNLSRLSKEVEDKTKQLRKLRGEDLDGLNLEELQRLEKLLESGLSRVSEKKGECVMSQIFSLEKRGSELVDENKRLRDKLETLERAKLTTLKEALETESVTTNVSSYDSGTPLEDDSDTSLKLGLPSWE | – | binds | binds
